This experiment has as its target Flag-ZFP296 ΔZF4-6 (mouse) (UniProt E9Q6W4). Briefly: co-IP; Flag-ZFP296 or its deletion mutants coexpressed with Myc-G9a or Myc-GLP in HEK293T cells; nuclei extracted in 500 mM NaCl, 0.5% IGEPAL CA-630 with Cryonase nuclease, supernatant diluted 4-fold; magnetic beads with anti-Flag (or anti-Myc-tag) antibody, 3 h, 4 °C; western blot with anti-Myc-tag then anti-Flag-tag antibody. (In general: In western blotting, separated proteins are transferred to a membrane and probed.)

Chains of the proteins cited; added tags and fusions are not shown. Lines headed by an entry give the natural chain unless they say otherwise; changes in a name come on top.
UniProt E9Q6W4: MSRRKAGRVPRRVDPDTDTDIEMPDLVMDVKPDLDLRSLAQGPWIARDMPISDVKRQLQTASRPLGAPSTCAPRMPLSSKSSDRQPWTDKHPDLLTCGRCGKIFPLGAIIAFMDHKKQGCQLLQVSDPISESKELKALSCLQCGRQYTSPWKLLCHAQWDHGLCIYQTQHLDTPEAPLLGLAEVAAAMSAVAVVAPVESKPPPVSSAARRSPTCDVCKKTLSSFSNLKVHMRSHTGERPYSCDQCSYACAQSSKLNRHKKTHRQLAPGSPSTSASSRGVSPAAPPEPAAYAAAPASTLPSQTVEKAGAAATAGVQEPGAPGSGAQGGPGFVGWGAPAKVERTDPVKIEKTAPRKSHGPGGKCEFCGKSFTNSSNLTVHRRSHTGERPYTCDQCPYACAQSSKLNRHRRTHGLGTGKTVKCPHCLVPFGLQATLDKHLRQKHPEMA
UniProt Q9Z148: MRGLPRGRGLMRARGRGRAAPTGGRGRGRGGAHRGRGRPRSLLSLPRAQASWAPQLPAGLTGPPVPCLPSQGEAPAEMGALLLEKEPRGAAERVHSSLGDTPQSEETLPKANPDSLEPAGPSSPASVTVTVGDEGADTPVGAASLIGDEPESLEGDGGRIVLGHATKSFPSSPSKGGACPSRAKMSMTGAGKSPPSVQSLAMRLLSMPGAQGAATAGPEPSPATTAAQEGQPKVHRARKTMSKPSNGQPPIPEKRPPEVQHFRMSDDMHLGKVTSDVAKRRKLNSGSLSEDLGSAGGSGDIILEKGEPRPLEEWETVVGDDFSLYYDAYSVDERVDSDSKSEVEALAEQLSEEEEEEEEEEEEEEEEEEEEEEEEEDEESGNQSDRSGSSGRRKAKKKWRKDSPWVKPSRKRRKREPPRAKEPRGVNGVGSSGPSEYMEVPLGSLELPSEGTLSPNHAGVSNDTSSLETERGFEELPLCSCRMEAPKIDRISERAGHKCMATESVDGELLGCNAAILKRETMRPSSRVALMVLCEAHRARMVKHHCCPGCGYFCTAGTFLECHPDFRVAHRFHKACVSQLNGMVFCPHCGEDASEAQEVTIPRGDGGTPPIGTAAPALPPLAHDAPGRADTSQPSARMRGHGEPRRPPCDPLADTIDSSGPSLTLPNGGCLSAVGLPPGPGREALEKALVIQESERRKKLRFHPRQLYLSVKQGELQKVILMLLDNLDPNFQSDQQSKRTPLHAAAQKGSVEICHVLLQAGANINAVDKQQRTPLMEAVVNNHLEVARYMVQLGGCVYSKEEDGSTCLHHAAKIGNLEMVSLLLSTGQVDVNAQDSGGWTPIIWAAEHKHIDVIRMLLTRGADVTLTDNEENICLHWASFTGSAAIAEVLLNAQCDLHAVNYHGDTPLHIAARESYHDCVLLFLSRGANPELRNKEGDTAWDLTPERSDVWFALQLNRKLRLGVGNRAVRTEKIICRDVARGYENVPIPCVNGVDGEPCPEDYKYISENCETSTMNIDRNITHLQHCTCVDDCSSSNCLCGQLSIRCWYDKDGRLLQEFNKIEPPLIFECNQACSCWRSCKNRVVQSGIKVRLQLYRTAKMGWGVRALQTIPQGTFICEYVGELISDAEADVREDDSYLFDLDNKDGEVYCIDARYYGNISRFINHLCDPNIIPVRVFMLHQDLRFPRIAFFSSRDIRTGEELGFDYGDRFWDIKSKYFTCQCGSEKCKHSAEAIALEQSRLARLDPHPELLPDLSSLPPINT

The results in this text go back to PMC10366109.

No constants are given. Whether binding was seen depends on the method and setting. Binding seen in cells or lysates may run through a third protein.

On to “Myc-G9a (from UniProt Q9Z148 1-1263) (enzyme)”, for which the binding result was “no binding”.
